No constants are given. Whether binding was seen depends on the method and setting. Binding can be weak; no strength is given.
B1: VHH-57 (VHH)
VHH: EVQLVESGGGLVQPGGSLRLSCTASGNIFSLLDMKWYRQAPGKQRELVADITSGGSTNYADPVKGRFTISRDNAKNTVYLQMNSLRPEDTAVYYCNAAPYYWGAYRRQESWGQGTLVTVSS
notes: Monovalent VHH purified from E. coli periplasm with C-terminal FLAG3 and His6 tags; not shown: C-terminal FLAG3 and His6 tags
B2: VHH-64 (VHH)
VHH: EVQLVESGGGLVQPGGSLRLSCAVSGGIRSIIPAGWYRQVPGKQRELVAAISTAGSADYADSVKGRFTISRDNTKNTAYLQMNSLRPEDTAVYYCNGRQTGWRTRVDYWGQGTLVTVSS
notes: as for B1
B3: VHH-67 (VHH)
VHH: EVQLVESGGGLVQPGGSLRLSCTVSGSIFSLRTVGWYRQAPGKQRELVATISAGGATDYADSVKVRFTVSRDNGKNTVYLQMNSLRPEDTAVYYCYAQDSYKIYKSRYTQDYWGQGTLVTVSS
notes: as for B1

target: macaca CCR8 (macaca); experiment: flow cytometry on HEK293T cells transiently expressing macaca CCR8

**Q.** For B1, which binding is on record?
**A.** Its binding is “binds”.

**Q.** For B2, which binding is on record?
**A.** The binding was “binds”.

**Q.** How did the binding turn out when B3 was run?
**A.** Its binding is “binds”.

Reference: US20240052045A1 (VIB VZW, published 2024)
